No constants are given. Whether binding was seen depends on the method and setting. In cells and extracts the contact can be indirect. Some entries that bind do so weakly or less than the wild type.
Target: cytochrome c (CYCS), endogenous (human (endogenous in HEK-293T; the cell line of the proximity ligation assay is not stated, all lines of the paper are human)) (UniProt P99999)
Experiment: proximity ligation; Duolink kit; anti-USP53 rabbit polyclonal Ab with PLUS probe, anti-CYCS mouse monoclonal Ab with MINUS probe; endogenous proteins in fixed cells, MitoTracker and DAPI, confocal microscopy

By UniProt entry, the sequences of proteins in these tests, tags left out.
UniProt P99999: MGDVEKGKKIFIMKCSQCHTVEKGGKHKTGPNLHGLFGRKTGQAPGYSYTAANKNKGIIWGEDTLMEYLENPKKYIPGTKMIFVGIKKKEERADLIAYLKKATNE

B1: USP53, endogenous (enzyme, UniProt Q70EK8 1-1073)
chain: MAWVKFLRKPGGNLGKVYQPGSMLSLAPTKGLLNEPGQNSCFLNSAVQVLWQLDIFRRSLRVLTGHVCQGDACIFCALKTIFAQFQHSREKALPSDNIRHALAESFKDEQRFQLGLMDDAAECFENMLERIHFHIVPSRDADMCTSKSCITHQKFAMTLYEQCVCRSCGASSDPLPFTEFVRYISTTALCNEVERMLERHERFKPEMFAELLQAANTTDDYRKCPSNCGQKIKIRRVLMNCPEIVTIGLVWDSEHSDLTEAVVRNLATHLYLPGLFYRVTDENAKNSELNLVGMICYTSQHYCAFAFHTKSSKWVFFDDANVKEIGTRWKDVVSKCIRCHFQPLLLFYANPDGTAVSTEDALRQVISWSHYKSVAENMGCEKPVIHKSDNLKENGFGDQAKQRENQKFPTDNISSSNRSHSHTGVGKGPAKLSHIDQREKIKDISRECALKAIEQKNLLSSQRKDLEKGQRKDLGRHRDLVDEDLSHFQSGSPPAPNGFKQHGNPHLYHSQGKGSYKHDRVVPQSRASAQIISSSKSQILAPGEKITGKVKSDNGTGYDTDSSQDSRDRGNSCDSSSKSRNRGWKPMRETLNVDSIFSESEKRQHSPRHKPNISNKPKSSKDPSFSNWPKENPKQKGLMTIYEDEMKQEIGSRSSLESNGKGAEKNKGLVEGKVHGDNWQMQRTESGYESSDHISNGSTNLDSPVIDGNGTVMDISGVKETVCFSDQITTSNLNKERGDCTSLQSQHHLEGFRKELRNLEAGYKSHEFHPESHLQIKNHLIKRSHVHEDNGKLFPSSSLQIPKDHNAREHIHQSDEQKLEKPNECKFSEWLNIENSERTGLPFHVDNSASGKRVNSNEPSSLWSSHLRTVGLKPETAPLIQQQNIMDQCYFENSLSTECIIRSASRSDGCQMPKLFCQNLPPPLPPKKYAITSVPQSEKSESTPDVKLTEVFKATSHLPKHSLSTASEPSLEVSTHMNDERHKETFQVRECFGNTPNCPSSSSTNDFQANSGAIDAFCQPELDSISTCPNETVSLTTYFSVDSCMTDTYRLKYHQRPKLSFPESSGFCNNSLS
For B1, the binding was “binds”.
